Assay results as given in PMC4303762, “Identification of PLXDC1 and PLXDC2 as the transmembrane receptors for the multifunctional factor PEDF” (eLife, 2014).
No constants are given. Whether binding was seen depends on the method and setting. In cells and extracts the contact can be indirect. Some entries that bind do so weakly or less than the wild type. For some of these results: Tags and fused reporters may be left off the sequences shown. Each block holds one molecule with its values, some of them ahead of it.

Protein sequences, listed by entry. Tags and fused reporters are not part of them. Residues count along the entry.
UniProt Q6UX71, residues 31-529: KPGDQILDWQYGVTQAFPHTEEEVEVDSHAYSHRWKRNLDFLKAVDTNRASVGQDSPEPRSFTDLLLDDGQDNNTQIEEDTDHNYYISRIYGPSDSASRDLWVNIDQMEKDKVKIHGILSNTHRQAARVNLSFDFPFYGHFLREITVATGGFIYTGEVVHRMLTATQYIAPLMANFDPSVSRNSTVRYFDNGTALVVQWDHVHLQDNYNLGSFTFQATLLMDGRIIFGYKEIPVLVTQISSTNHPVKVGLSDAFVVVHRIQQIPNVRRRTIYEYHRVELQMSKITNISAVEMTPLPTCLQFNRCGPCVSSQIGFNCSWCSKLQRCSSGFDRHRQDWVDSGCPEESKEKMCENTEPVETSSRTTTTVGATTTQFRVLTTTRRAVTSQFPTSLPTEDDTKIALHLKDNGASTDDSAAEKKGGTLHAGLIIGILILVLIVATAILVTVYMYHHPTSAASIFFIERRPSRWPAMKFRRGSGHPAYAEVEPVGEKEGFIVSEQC

Key:
[1] = biological target: T1, Rim-tagged PLXDC1 (human) (UniProt Q8IUK5); assay: co-IP; cotransfected cells lysed in 1% Triton X-100 in HBSS; Rim-tagged protein purified on anti-Rim antibody beads, 4 hr at 4°C; eluted at pH 2.3; copurified receptors detected by anti-HA or by antibody specific to PLXDC1 or PLXDC2
T1 sequence: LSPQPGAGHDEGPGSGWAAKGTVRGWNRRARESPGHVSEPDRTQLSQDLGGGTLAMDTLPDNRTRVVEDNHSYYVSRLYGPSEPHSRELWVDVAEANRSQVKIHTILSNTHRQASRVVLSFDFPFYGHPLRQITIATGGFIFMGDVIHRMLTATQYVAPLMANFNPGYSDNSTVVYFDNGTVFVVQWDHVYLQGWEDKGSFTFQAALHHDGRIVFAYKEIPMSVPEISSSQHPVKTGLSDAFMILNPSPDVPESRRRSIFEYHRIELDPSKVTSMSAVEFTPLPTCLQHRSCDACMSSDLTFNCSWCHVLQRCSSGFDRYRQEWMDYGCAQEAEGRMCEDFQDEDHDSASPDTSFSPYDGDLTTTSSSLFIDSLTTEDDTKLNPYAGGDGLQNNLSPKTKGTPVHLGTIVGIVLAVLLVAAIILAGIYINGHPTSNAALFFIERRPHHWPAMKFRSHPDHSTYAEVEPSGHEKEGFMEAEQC

[2] = biological target: Rim-tagged PLXDC2 (human) (UniProt Q6UX71); assay: as above
[3] = biological target: T2, PLXDC1 fused to yellow fluorescent protein at the C-terminus (human) (UniProt Q8IUK5); assay: FRET or BRET; CFP-YFP FRET (ratio of emissions at 530 nm over 470 nm) in membranes of HEK293 cells coexpressing the CFP and YFP fusions, HBSS/HEPES; some samples treated with 2 mM BMOE beforehand
T2 sequence: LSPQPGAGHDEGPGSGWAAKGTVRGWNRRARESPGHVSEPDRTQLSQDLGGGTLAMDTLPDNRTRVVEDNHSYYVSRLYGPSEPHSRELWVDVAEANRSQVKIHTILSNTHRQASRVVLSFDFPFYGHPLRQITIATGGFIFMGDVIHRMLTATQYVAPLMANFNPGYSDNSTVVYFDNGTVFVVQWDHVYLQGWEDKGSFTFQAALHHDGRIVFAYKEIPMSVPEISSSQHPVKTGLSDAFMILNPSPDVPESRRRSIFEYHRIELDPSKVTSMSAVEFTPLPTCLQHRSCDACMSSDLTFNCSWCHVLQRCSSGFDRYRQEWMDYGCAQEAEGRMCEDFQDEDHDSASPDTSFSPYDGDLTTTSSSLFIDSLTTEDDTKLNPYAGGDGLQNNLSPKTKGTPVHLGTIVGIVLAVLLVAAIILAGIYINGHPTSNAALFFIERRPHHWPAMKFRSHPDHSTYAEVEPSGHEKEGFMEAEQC

[4] = biological target: T3, PLXDC1-C500S fused to YFP (human) (UniProt Q8IUK5); assay: as above
T3 sequence: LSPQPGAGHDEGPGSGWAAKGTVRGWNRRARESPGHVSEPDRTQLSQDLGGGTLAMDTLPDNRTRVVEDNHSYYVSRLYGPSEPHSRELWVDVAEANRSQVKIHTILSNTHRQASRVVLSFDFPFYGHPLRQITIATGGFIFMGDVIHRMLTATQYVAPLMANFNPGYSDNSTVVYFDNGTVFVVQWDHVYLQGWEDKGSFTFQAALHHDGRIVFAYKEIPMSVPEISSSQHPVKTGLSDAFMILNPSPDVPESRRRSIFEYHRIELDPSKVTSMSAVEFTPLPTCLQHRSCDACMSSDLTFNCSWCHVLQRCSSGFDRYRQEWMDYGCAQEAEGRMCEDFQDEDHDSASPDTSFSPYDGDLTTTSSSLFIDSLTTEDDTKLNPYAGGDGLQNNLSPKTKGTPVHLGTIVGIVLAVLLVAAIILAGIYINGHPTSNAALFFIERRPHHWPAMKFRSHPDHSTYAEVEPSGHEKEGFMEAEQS

binding [1]: no binding
Molecule: untagged PLXDC2 (copurification) (from UniProt Q6UX71 31-529) (receptor)

binding [2]: binds
Molecule: HA-tagged PLXDC2 (from UniProt Q6UX71 31-529) (receptor)

binding [3]: binds
B1: PLXDC1 fused to Cyan Fluorescent Protein at the C-terminus (receptor, UniProt Q8IUK5 19-500)
chain: LSPQPGAGHDEGPGSGWAAKGTVRGWNRRARESPGHVSEPDRTQLSQDLGGGTLAMDTLPDNRTRVVEDNHSYYVSRLYGPSEPHSRELWVDVAEANRSQVKIHTILSNTHRQASRVVLSFDFPFYGHPLRQITIATGGFIFMGDVIHRMLTATQYVAPLMANFNPGYSDNSTVVYFDNGTVFVVQWDHVYLQGWEDKGSFTFQAALHHDGRIVFAYKEIPMSVPEISSSQHPVKTGLSDAFMILNPSPDVPESRRRSIFEYHRIELDPSKVTSMSAVEFTPLPTCLQHRSCDACMSSDLTFNCSWCHVLQRCSSGFDRYRQEWMDYGCAQEAEGRMCEDFQDEDHDSASPDTSFSPYDGDLTTTSSSLFIDSLTTEDDTKLNPYAGGDGLQNNLSPKTKGTPVHLGTIVGIVLAVLLVAAIILAGIYINGHPTSNAALFFIERRPHHWPAMKFRSHPDHSTYAEVEPSGHEKEGFMEAEQC

binding [4]: binds
B2: PLXDC1-C500S fused to CFP (receptor, UniProt Q8IUK5 19-500)
chain: LSPQPGAGHDEGPGSGWAAKGTVRGWNRRARESPGHVSEPDRTQLSQDLGGGTLAMDTLPDNRTRVVEDNHSYYVSRLYGPSEPHSRELWVDVAEANRSQVKIHTILSNTHRQASRVVLSFDFPFYGHPLRQITIATGGFIFMGDVIHRMLTATQYVAPLMANFNPGYSDNSTVVYFDNGTVFVVQWDHVYLQGWEDKGSFTFQAALHHDGRIVFAYKEIPMSVPEISSSQHPVKTGLSDAFMILNPSPDVPESRRRSIFEYHRIELDPSKVTSMSAVEFTPLPTCLQHRSCDACMSSDLTFNCSWCHVLQRCSSGFDRYRQEWMDYGCAQEAEGRMCEDFQDEDHDSASPDTSFSPYDGDLTTTSSSLFIDSLTTEDDTKLNPYAGGDGLQNNLSPKTKGTPVHLGTIVGIVLAVLLVAAIILAGIYINGHPTSNAALFFIERRPHHWPAMKFRSHPDHSTYAEVEPSGHEKEGFMEAEQS
